Source: the supplement of paper PMC10077471
Over roughly 1,900 compounds, “excess over highest single agent (ExcessHSA) synergy score, 6x6 matrix” has its median near -83; the lowest 2% begin near -370. This is one part of the list.

tested on: NCI-H446; test: excess over highest single agent (ExcessHSA) synergy score, 6x6 matrix; higher = less synergy (more negative = stronger synergy); settings: 72 h; CellTiter-Glo viability

Row | Compound | excess over highest single agent
1 | COc1cc2nccc(Oc3ccc(NC(=O)Nc4ccc(F)cc4F)c(F)c3)c2cc1OC + Cc1sc2c(c1C)C(c1ccc(Cl)cc1)=N[C@@H](CC(=O)OC(C)(C)C)c1nnc(C)n1-2 [NCGC00250412-19] | -106
2 | C[C@]12C=CC(=O)C=C1CC[C@@H]1[C@@H]2C(=O)C[C@@]2(C)[C@H]1CC[C@]2(O)C(=O)CO + Cc1sc2c(c1C)C(c1ccc(Cl)cc1)=N[C@@H](CC(=O)OC(C)(C)C)c1nnc(C)n1-2 [NCGC00250412-19] | -215
3 | c1ccc2c(Oc3nc(Nc4ccc(N5CCOCC5)cc4)c4ncn(C5CCCCC5)c4n3)cccc2c1 + Cc1sc2c(c1C)C(c1ccc(Cl)cc1)=N[C@@H](CC(=O)OC(C)(C)C)c1nnc(C)n1-2 [NCGC00250412-19] | -45.5
4 | Nc1ncnc2nc(-c3ccc(N4CCOCC4)nc3)cc(-c3cccc(Br)c3)c12 + Cc1sc2c(c1C)C(c1ccc(Cl)cc1)=N[C@@H](CC(=O)OC(C)(C)C)c1nnc(C)n1-2 [NCGC00250412-19] | -45.2
5 | COc1cc(NC(=O)c2ccc(-c3ccc(Cl)cc3)o2)cc(OC)c1 + Cc1sc2c(c1C)C(c1ccc(Cl)cc1)=N[C@@H](CC(=O)OC(C)(C)C)c1nnc(C)n1-2 [NCGC00250412-19] | -25.4
6 | CS(=O)(=O)Nc1ccc([N+](=O)[O-])cc1Oc1ccccc1 + Cc1sc2c(c1C)C(c1ccc(Cl)cc1)=N[C@@H](CC(=O)OC(C)(C)C)c1nnc(C)n1-2 [NCGC00250412-19] | -31
7 | CCn1cc(C(=O)O)c(=O)c2cc(F)c(N3CCNC(C)C3)c(F)c21 (stereo not drawn) + Cc1sc2c(c1C)C(c1ccc(Cl)cc1)=N[C@@H](CC(=O)OC(C)(C)C)c1nnc(C)n1-2 [NCGC00250412-19] | -147
8 | CCC1=C[C@@H]2CN(C1)Cc1c([nH]c3ccccc13)[C@@](C(=O)OC)(c1cc3c(cc1OC)N(C)[C@H]1[C@@](O)(C(=O)OC)[C@H](OC(C)=O)[C@]4(CC)C=CCN5CC[C@]31[C@@H]54)C2 + Cc1sc2c(c1C)C(c1ccc(Cl)cc1)=N[C@@H](CC(=O)OC(C)(C)C)c1nnc(C)n1-2 [NCGC00250412-19] | -352
9 | CC(C)CN(C[C@@H](O)[C@H](Cc1ccccc1)NC(=O)O[C@H]1CCOC1)S(=O)(=O)c1ccc(N)cc1 + Cc1sc2c(c1C)C(c1ccc(Cl)cc1)=N[C@@H](CC(=O)OC(C)(C)C)c1nnc(C)n1-2 [NCGC00250412-19] | -65.5
10 | CC(=O)N1CCN(c2ccc(OCc3nn(C)c(C)c3-c3cccc4c(CCCOc5cccc6ccccc56)c(C(=O)O)n(Cc5cccnc5)c34)cc2)CC1 + Cc1sc2c(c1C)C(c1ccc(Cl)cc1)=N[C@@H](CC(=O)OC(C)(C)C)c1nnc(C)n1-2 [NCGC00250412-19] | 97.8
11 | COc1ccc2c(c1)CN(C)CC2c1ccc(Cl)c(Cl)c1 (stereo not drawn) + Cc1sc2c(c1C)C(c1ccc(Cl)cc1)=N[C@@H](CC(=O)OC(C)(C)C)c1nnc(C)n1-2 [NCGC00250412-19] | -62.7
12 | C#C[C@]1(O)C=C[C@H]2[C@@H]3CCC4=CC(=O)CC[C@@H]4[C@H]3CC[C@@]21CC + Cc1sc2c(c1C)C(c1ccc(Cl)cc1)=N[C@@H](CC(=O)OC(C)(C)C)c1nnc(C)n1-2 [NCGC00250412-19] | -28.3
13 | CCn1cc(C(=O)O)c(=O)c2cc(F)c(N3CCN(C)CC3)cc21 + Cc1sc2c(c1C)C(c1ccc(Cl)cc1)=N[C@@H](CC(=O)OC(C)(C)C)c1nnc(C)n1-2 [NCGC00250412-19] | -70.1
14 | N#CN=C(NCCCCCCOc1ccc(Cl)cc1)Nc1ccncc1 + Cc1sc2c(c1C)C(c1ccc(Cl)cc1)=N[C@@H](CC(=O)OC(C)(C)C)c1nnc(C)n1-2 [NCGC00250412-19] | -32.9
15 | C[C@]12Cc3c[nH]nc3C[C@@H]1CC[C@@H]1[C@@H]2CC[C@@]2(C)[C@H]1CC[C@]2(C)O + Cc1sc2c(c1C)C(c1ccc(Cl)cc1)=N[C@@H](CC(=O)OC(C)(C)C)c1nnc(C)n1-2 [NCGC00250412-19] | -76.1
16 | Nc1nc(-c2nn(Cc3ccccc3F)c3ncccc23)nc(N)c1N1CCOCC1 + Cc1sc2c(c1C)C(c1ccc(Cl)cc1)=N[C@@H](CC(=O)OC(C)(C)C)c1nnc(C)n1-2 [NCGC00250412-19] | -149
17 | C[C@@H]1CN(c2c(F)c(N)c3c(=O)c(C(=O)O)cn(C4CC4)c3c2F)C[C@H](C)N1 + Cc1sc2c(c1C)C(c1ccc(Cl)cc1)=N[C@@H](CC(=O)OC(C)(C)C)c1nnc(C)n1-2 [NCGC00250412-19] | -84
18 | CCOc1cc2ncc(C#N)c(Nc3ccc(OCc4ccccn4)c(Cl)c3)c2cc1NC(=O)/C=C/CN(C)C + Cc1sc2c(c1C)C(c1ccc(Cl)cc1)=N[C@@H](CC(=O)OC(C)(C)C)c1nnc(C)n1-2 [NCGC00250412-19] | -193
19 | CC(C)C[C@H](CN)CC(=O)O + Cc1sc2c(c1C)C(c1ccc(Cl)cc1)=N[C@@H](CC(=O)OC(C)(C)C)c1nnc(C)n1-2 [NCGC00250412-19] | 82.6
20 | Cc1cn([C@@H]2C[C@@H](O)[C@H](CO)O2)c(=O)[nH]c1=O + Cc1sc2c(c1C)C(c1ccc(Cl)cc1)=N[C@@H](CC(=O)OC(C)(C)C)c1nnc(C)n1-2 [NCGC00250412-19] | 21.8
21 | NC(=O)c1ncn([C@@H]2O[C@H](CO)[C@@H](O)[C@H]2O)c1O + Cc1sc2c(c1C)C(c1ccc(Cl)cc1)=N[C@@H](CC(=O)OC(C)(C)C)c1nnc(C)n1-2 [NCGC00250412-19] | -11
22 | CCc1cc(C(N)=S)ccn1 + Cc1sc2c(c1C)C(c1ccc(Cl)cc1)=N[C@@H](CC(=O)OC(C)(C)C)c1nnc(C)n1-2 [NCGC00250412-19] | -36.8
23 | Cc1ccc(C(=O)Nc2ccc(S(=O)(=O)O)c3cc(S(=O)(=O)O)cc(S(=O)(=O)O)c23)cc1NC(=O)c1cccc(NC(=O)Nc2cccc(C(=O)Nc3cc(C(=O)Nc4ccc(S(=O)(=O)O)c5cc(S(=O)(=O)O)cc(S(=O)(=O)O)c45)ccc3C)c2)c1 + Cc1sc2c(c1C)C(c1ccc(Cl)cc1)=N[C@@H](CC(=O)OC(C)(C)C)c1nnc(C)n1-2 [NCGC00250412-19] | 16.8

Individual results from the results shown.
excess over highest single agent, Nc1nc(-c2nn(Cc3ccccc3F)c3ncccc23)nc(N)c1N1CCOCC1 + Cc1sc2c(c1C)C(c1ccc(Cl)cc1)=N[C@@H](CC(=O)OC(C)(C)C)c1nnc(C)n1-2 [NCGC00250412-19] is entered as -149
excess over highest single agent, C[C@]12Cc3c[nH]nc3C[C@@H]1CC[C@@H]1[C@@H]2CC[C@@]2(C)[C@H]1CC[C@]2(C)O + Cc1sc2c(c1C)C(c1ccc(Cl)cc1)=N[C@@H](CC(=O)OC(C)(C)C)c1nnc(C)n1-2 [NCGC00250412-19] is entered as -76.1
